Reference: the supplement of paper PMC12067093, “Discovery and optimisation of a covalent ligand for TRIM25 and its application to targeted protein ubiquitination” (Chemical Science, 2025)
The other results are listed elsewhere or left out.

Compound: Cc1cc(ccc1-c1ccccc1)C(=O)N1CCCN(CC1)C(=O)CCl [compound 10]
Experiment: probe-labelled cysteine peptide fold change vs DMSO (competition) (log2 fold change); higher = less target engagement (more negative = stronger competition)
Details: THP-1, incubation time: 4 h
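Further: competitive profiling in live THP-1 cells: cysteine peptides tagged with an iodoacetamide desthiobiotin (IA-DTB) probe, intensity after compound treatment relative to DMSO-treated cells.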

## CUL4A_Q13619_289_RLEEEGDRVITYLDHSTQKPLIACVEK (UniProt Q13619)
10 µM
  probe-labelled cysteine peptide fold change: -0.276
50 µM
  probe-labelled cysteine peptide fold change: -0.439

## CXorf38_Q8TB03_133+145_QGPEECDAVALLSLINSCDHFVVDRK (UniProt Q8TB03)
10 µM
  probe-labelled cysteine peptide fold change: -0.152
50 µM
  probe-labelled cysteine peptide fold change: -0.411

## CYTH2_Q99418_322_KPNCFELYIPNNK (UniProt Q99418)
10 µM
  probe-labelled cysteine peptide fold change: 0.0998
50 µM
  probe-labelled cysteine peptide fold change: 0.448

## CWF19L1_Q69YN2_426_SHHLQLQVIPVPISCSTTDDIK (UniProt Q69YN2)
10 µM
  probe-labelled cysteine peptide fold change: -0.0713
50 µM
  probe-labelled cysteine peptide fold change: 0.248

## DAZAP1_Q96EP5_85_NIDPKPCTPR (UniProt Q96EP5)
10 µM
  probe-labelled cysteine peptide fold change: 0.0293
50 µM
  probe-labelled cysteine peptide fold change: -0.209

## CYB5R4_Q7L1T6_278_CQLISK (UniProt Q7L1T6)
10 µM
  probe-labelled cysteine peptide fold change: -0.0627
50 µM
  probe-labelled cysteine peptide fold change: -0.00326

## DCAF13_Q9NV06_215_FNPIETFLLGSCASDR (UniProt Q9NV06)
10 µM
  probe-labelled cysteine peptide fold change: 0.105
50 µM
  probe-labelled cysteine peptide fold change: -0.0461

## DBNL_Q9UJU6_97_GACASHVSTMASFLK (UniProt Q9UJU6)
10 µM
  probe-labelled cysteine peptide fold change: -0.0693
50 µM
  probe-labelled cysteine peptide fold change: -0.135

## DARS_P14868_349_LEYCEALAMLR (UniProt P14868)
10 µM
  probe-labelled cysteine peptide fold change: 0.204
50 µM
  probe-labelled cysteine peptide fold change: 0.208

## CUL1_Q13616_355_CGEAALNDPK (UniProt Q13616)
10 µM
  probe-labelled cysteine peptide fold change: -0.148
50 µM
  probe-labelled cysteine peptide fold change: 0.0469

## CTSS_P25774_320_GNHCGIASFPSYPEI (UniProt P25774)
10 µM
  probe-labelled cysteine peptide fold change: 0.0751
50 µM
  probe-labelled cysteine peptide fold change: 0.00783

## CXorf38_Q8TB03_24_AGHCLLLLR (UniProt Q8TB03)
10 µM
  probe-labelled cysteine peptide fold change: -0.243
50 µM
  probe-labelled cysteine peptide fold change: -0.159

## DARS2_Q6PI48_202_MREYLCNLHGFVDIETPTLFKR (UniProt Q6PI48)
10 µM
  probe-labelled cysteine peptide fold change: -0.224
50 µM
  probe-labelled cysteine peptide fold change: -0.413

## CTSB_P07858_211_ICEPGYSPTYK (UniProt P07858)
10 µM
  probe-labelled cysteine peptide fold change: -0.116
50 µM
  probe-labelled cysteine peptide fold change: -0.331

## DAZAP1_Q96EP5_63_FKDPNCVGTVLASRPHTLDGR (UniProt Q96EP5)
10 µM
  probe-labelled cysteine peptide fold change: 0.15
50 µM
  probe-labelled cysteine peptide fold change: 0.0131

## CYFIP1_Q7L576_1088_LCCGLSMFEVILTR (UniProt Q7L576)
10 µM
  probe-labelled cysteine peptide fold change: 0.137
50 µM
  probe-labelled cysteine peptide fold change: 0.226

## DAZAP1_Q96EP5_63_DPNCVGTVLASRPHTLDGR (UniProt Q96EP5)
10 µM
  probe-labelled cysteine peptide fold change: 0.117
50 µM
  probe-labelled cysteine peptide fold change: 0.131

## CTR9_Q6PD62_196_TNPGCPAEVR (UniProt Q6PD62)
10 µM
  probe-labelled cysteine peptide fold change: -0.0165
50 µM
  probe-labelled cysteine peptide fold change: -0.0939

## DCUN1D1_Q96GG9_131_QEFMDGMTELGCDSIEK (UniProt Q96GG9)
10 µM
  probe-labelled cysteine peptide fold change: 0.0558
50 µM
  probe-labelled cysteine peptide fold change: 0.234

## CYB5R3_P00387_284_DHLPPPEEEPLVLMCGPPPMIQYACLPNLDHVGHPTER (UniProt P00387)
10 µM
  probe-labelled cysteine peptide fold change: 0.38
50 µM
  probe-labelled cysteine peptide fold change: 0.0265

## DAZAP1_Q96EP5_124_IFVGGIPHNCGETELREYFK (UniProt Q96EP5)
10 µM
  probe-labelled cysteine peptide fold change: -0.158
50 µM
  probe-labelled cysteine peptide fold change: -0.435

## CUL4B_Q13620_297_CWQNHCR (UniProt Q13620)
10 µM
  probe-labelled cysteine peptide fold change: 0.0578
50 µM
  probe-labelled cysteine peptide fold change: 0.185

## DCAF6_Q58WW2_513_GIGSHCK (UniProt Q58WW2)
10 µM
  probe-labelled cysteine peptide fold change: -0.205
50 µM
  probe-labelled cysteine peptide fold change: -0.361

## CTSC_P53634_321_YAQDFGLVEEACFPYTGTDSPCK (UniProt P53634)
10 µM
  probe-labelled cysteine peptide fold change: -0.183
50 µM
  probe-labelled cysteine peptide fold change: -0.228

## CTSA_P10619_240_LWSSLQTHCCSQNK (UniProt P10619)
10 µM
  probe-labelled cysteine peptide fold change: 0.0306
50 µM
  probe-labelled cysteine peptide fold change: 0.215

## CYTH1_Q15438_323_EVEDSKKPNCFELYIPDNK (UniProt Q15438)
10 µM
  probe-labelled cysteine peptide fold change: -0.0153
50 µM
  probe-labelled cysteine peptide fold change: -0.555

## DCAF12L1_Q5VU92_150_LAQDQQGCGIHAIELNPSK (UniProt Q5VU92)
10 µM
  probe-labelled cysteine peptide fold change: -0.214
50 µM
  probe-labelled cysteine peptide fold change: -0.239

## CUL1_Q13616_149_RECDEGR (UniProt Q13616)
10 µM
  probe-labelled cysteine peptide fold change: -0.162
50 µM
  probe-labelled cysteine peptide fold change: 0.248

## CYB5R3_P00387_284_APEAWDYGQGFVNEEMIRDHLPPPEEEPLVLMCGPPPMIQYACLPNLDHVGHPTER (UniProt P00387)
10 µM
  probe-labelled cysteine peptide fold change: -0.228
50 µM
  probe-labelled cysteine peptide fold change: -0.849

## DAZAP1_Q96EP5_39_SYFSQYGEVVDCVIMK (UniProt Q96EP5)
10 µM
  probe-labelled cysteine peptide fold change: 0.257
50 µM
  probe-labelled cysteine peptide fold change: 0.0801

## CUL3_Q13618_636_ALQSLACGKPTQR (UniProt Q13618)
10 µM
  probe-labelled cysteine peptide fold change: -0.223
50 µM
  probe-labelled cysteine peptide fold change: -0.175

## DDAH2_O95865_176_GLCGMGGPR (UniProt O95865)
10 µM
  probe-labelled cysteine peptide fold change: -0.185
50 µM
  probe-labelled cysteine peptide fold change: -0.334

## CXXC1_Q9P0U4_181+187_RTEDCGHCDFCR (UniProt Q9P0U4)
10 µM
  probe-labelled cysteine peptide fold change: -0.0138
50 µM
  probe-labelled cysteine peptide fold change: -0.748

## DAB2IP_Q5VWQ8_487_IINSYCVFPR (UniProt Q5VWQ8)
10 µM
  probe-labelled cysteine peptide fold change: -0.0135
50 µM
  probe-labelled cysteine peptide fold change: -0.164

## CYB5R1_Q9UHQ9_288_EHLPAPGDDVLVLLCGPPPMVQLACHPNLDK (UniProt Q9UHQ9)
10 µM
  probe-labelled cysteine peptide fold change: -0.00877
50 µM
  probe-labelled cysteine peptide fold change: -0.297

## DCAF4_Q8WV16_143_SQLGFLNVTNYCHLAHELR (UniProt Q8WV16)
10 µM
  probe-labelled cysteine peptide fold change: 0.12
50 µM
  probe-labelled cysteine peptide fold change: 0.311
